Experimental data reported in the supplement of paper PMC8728848.
The list shows a part of the results.

Key:
Experiment in all cases: glycan array binding signal (z-score within array); higher = stronger binding
Settings in all cases: glycan notation: IUPAC condensed, linker removed
[1] = target: Neu5Ac(a2-3)Gal(b1-3)GlcNAc6S
Method in brief: (§1)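 Glycan array data were curated from 3228 arrays in the Consortium for Functional Glycomics database and kept only where the protein sequence was available. Glycan names were converted to IUPAC-condensed notation, and columns mapping to the same glycan were averaged. The binding signal is a within-array Z-score, averaged across arrays of the same protein sequence at different concentrations or buffers and across linkers. Negative Z-scores can be read as non-binding.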

[2] = target: Neu5Ac(a2-3)Gal(b1-3)[Fuc(a1-4)]GlcNAc
Method in brief: as §1

[3] = target: Neu5Ac(a2-3)Gal(b1-3)[Fuc(a1-4)]GlcNAc(b1-3)Gal(b1-3)[Fuc(a1-4)]GlcNAc
Method in brief: as §1

[4] = target: Neu5Ac(a2-3)Gal(b1-3)[Fuc(a1-4)]GlcNAc(b1-3)Gal(b1-4)[Fuc(a1-3)]GlcNAc
Method in brief: as §1

[5] = target: Neu5Ac(a2-3)Gal(b1-3)[GlcNAc(b1-6)]GalNAc
Method in brief: as §1

[6] = target: Neu5Ac(a2-3)Gal(b1-3)[Neu5Ac(a2-6)]GalNAc
Method in brief: as §1

[7] = target: Neu5Ac(a2-3)Gal(b1-3)[Neu5Ac(a2-6)]GlcNAc(b1-3)[Fuc(a1-3)[Gal(b1-4)]GlcNAc(b1-6)]Gal(b1-4)Glc
Method in brief: as §1

[8] = target: Neu5Ac(a2-3)Gal(b1-3)]Neu5Ac(a2-3)Gal(b1-4)]GlcNAc
Method in brief: as §1

Neu5Ac(a2-3)Gal(b1-4)Glc = target: Neu5Ac(a2-3)Gal(b1-4)Glc
Method in brief: as §1

[9] = target: Neu5Ac(a2-3)Gal(b1-4)GlcNAc
Method in brief: as §1

[10] = target: Neu5Ac(a2-3)Gal(b1-4)GlcNAc(b1-2)Man
Method in brief: as §1

[11] = target: Neu5Ac(a2-3)Gal(b1-4)GlcNAc(b1-2)Man(a1-3)[GlcNAc(b1-4)][Neu5Ac(a2-3)Gal(b1-4)GlcNAc(b1-2)Man(a1-6)]Man(b1-4)GlcNAc(b1-4)GlcNAc
Method in brief: as §1

[12] = target: Neu5Ac(a2-3)Gal(b1-4)GlcNAc(b1-2)Man(a1-3)[Neu5Ac(a2-3)Gal(b1-4)GlcNAc(b1-2)Man(a1-6)]Man(b1-4)GlcNAc(b1-4)GlcNAc
Method in brief: as §1

[13] = target: Neu5Ac(a2-3)Gal(b1-4)GlcNAc(b1-2)Man(a1-3)[Neu5Ac(a2-3)Gal(b1-4)GlcNAc(b1-2)Man(a1-6)]Man(b1-4)GlcNAc(b1-4)[Fuc(a1-6)]GlcNAc
Method in brief: as §1

[14] = target: Neu5Ac(a2-3)Gal(b1-4)GlcNAc(b1-2)Man(a1-3)[Neu5Ac(a2-6)Gal(b1-4)GlcNAc(b1-2)Man(a1-6)]Man(b1-4)GlcNAc(b1-4)GlcNAc
Method in brief: as §1

[15] = target: Neu5Ac(a2-3)Gal(b1-4)GlcNAc(b1-2)[Neu5Ac(a2-3)Gal(b1-4)GlcNAc(b1-4)]Man(a1-3)[GlcNAc(b1-4)][Neu5Ac(a2-3)Gal(b1-4)GlcNAc(b1-2)[Neu5Ac(a2-3)Gal(b1-4)GlcNAc(b1-6)]Man(a1-6)]Man(b1-4)GlcNAc(b1-4)GlcNAc
Method in brief: as §1

[16] = target: Neu5Ac(a2-3)Gal(b1-4)GlcNAc(b1-2)[Neu5Ac(a2-3)Gal(b1-4)GlcNAc(b1-4)]Man(a1-3)[GlcNAc(b1-4)][Neu5Ac(a2-3)Gal(b1-4)GlcNAc(b1-4)Man(a1-6)]Man(b1-4)GlcNAc(b1-4)GlcNAc
Method in brief: as §1

[17] = target: Neu5Ac(a2-3)Gal(b1-4)GlcNAc(b1-2)[Neu5Ac(a2-3)Gal(b1-4)GlcNAc(b1-6)]Man(a1-6)[Neu5Ac(a2-3)Gal(b1-4)GlcNAc(b1-2)Man(a1-3)][GlcNAc(b1-4)]Man(b1-4)GlcNAc(b1-4)GlcNAc
Method in brief: as §1

[18] = target: Neu5Ac(a2-3)Gal(b1-4)GlcNAc(b1-3)Gal
Method in brief: as §1

[19] = target: Neu5Ac(a2-3)Gal(b1-4)GlcNAc(b1-3)Gal(b1-3)GlcNAc
Method in brief: as §1

[20] = target: Neu5Ac(a2-3)Gal(b1-4)GlcNAc(b1-3)Gal(b1-4)GlcNAc
Method in brief: as §1

[21] = target: Neu5Ac(a2-3)Gal(b1-4)GlcNAc(b1-3)Gal(b1-4)GlcNAc(b1-2)Man(a1-3)[Neu5Ac(a2-3)Gal(b1-4)GlcNAc(b1-3)Gal(b1-4)GlcNAc(b1-2)Man(a1-6)]Man(b1-4)GlcNAc(b1-4)GlcNAc
Method in brief: as §1

[22] = target: Neu5Ac(a2-3)Gal(b1-4)GlcNAc(b1-3)Gal(b1-4)GlcNAc(b1-3)Gal(b1-4)GlcNAc
Method in brief: as §1

[23] = target: Neu5Ac(a2-3)Gal(b1-4)GlcNAc(b1-3)Gal(b1-4)GlcNAc(b1-3)Gal(b1-4)GlcNAc(b1-2)Man(a1-3)[Neu5Ac(a2-3)Gal(b1-4)GlcNAc(b1-3)Gal(b1-4)GlcNAc(b1-3)Gal(b1-4)GlcNAc(b1-2)Man(a1-6)]GalNAc
Method in brief: as §1

[24] = target: Neu5Ac(a2-3)Gal(b1-4)GlcNAc(b1-3)Gal(b1-4)GlcNAc(b1-3)GalNAc
Method in brief: as §1

[25] = target: Neu5Ac(a2-3)Gal(b1-4)GlcNAc(b1-3)Gal(b1-4)GlcNAc(b1-3)[Neu5Ac(a2-3)Gal(b1-4)GlcNAc(b1-3)Gal(b1-4)GlcNAc(b1-6)]GalNAc
Method in brief: as §1

[26] = target: Neu5Ac(a2-3)Gal(b1-4)GlcNAc(b1-3)Gal(b1-4)GlcNAc(b1-6)[Gal(b1-3)]GalNAc
Method in brief: as §1

[27] = target: Neu5Ac(a2-3)Gal(b1-4)GlcNAc(b1-3)Gal(b1-4)[Fuc(a1-3)]GlcNAc
Method in brief: as §1

[28] = target: Neu5Ac(a2-3)Gal(b1-4)GlcNAc(b1-3)GalNAc
Method in brief: as §1

[29] = target: Neu5Ac(a2-3)Gal(b1-4)GlcNAc(b1-3)[Neu5Ac(a2-3)Gal(b1-4)GlcNAc(b1-6)]GalNAc
Method in brief: as §1

B1: Epa3to2 (Candida glabrata) (protein)
chain: MGSSHHHHHHSSGLVPRGSHMKRELSSQNPFGYPIGCSPQDVAIIPGLTMELYSYPIVSGTPPNCYDASYVDPEYPRTGYLKRKMVGKSTGVTGNLNYKYSVEKACMVKYGNLPAGYNYNEPLTVSNFTMILYGYFKAQTTGLHTFFVNADDLLYINFGAGNAFDCCKREDSKTKLGEYVAYDIWHVDSSKNKVSLFLEKDLYYPIRMFFNNRDNNSSLDLSFSVNGATDQISDFSGYLYSVPDQPDTCPAHIGYDTTCR
Q: Which results are given for B1?
A: glycan array binding signal (z-score) [1]: 0.457; glycan array binding signal (z-score) [2]: -0.941; glycan array binding signal (z-score) [3]: 0.389; glycan array binding signal (z-score) [4]: -0.064; glycan array binding signal (z-score) [5]: 1.58; glycan array binding signal (z-score) [6]: 0.695; glycan array binding signal (z-score) [7]: 0.598; glycan array binding signal (z-score) [8]: -0.356; glycan array binding signal (z-score) (Neu5Ac(a2-3)Gal(b1-4)Glc): 7.38; glycan array binding signal (z-score) [9]: -0.387; glycan array binding signal (z-score) [10]: 2.24; glycan array binding signal (z-score) [11]: -0.613; glycan array binding signal (z-score) [12]: -0.196; glycan array binding signal (z-score) [13]: -0.663; glycan array binding signal (z-score) [14]: -0.409; glycan array binding signal (z-score) [15]: 1.37; glycan array binding signal (z-score) [16]: -0.302; glycan array binding signal (z-score) [17]: -0.972; glycan array binding signal (z-score) [18]: -1.15; glycan array binding signal (z-score) [19]: -1.11; glycan array binding signal (z-score) [20]: -0.032; glycan array binding signal (z-score) [21]: -0.747; glycan array binding signal (z-score) [22]: 0.849; glycan array binding signal (z-score) [23]: -0.218; glycan array binding signal (z-score) [24]: -0.207; glycan array binding signal (z-score) [25]: 0.371; glycan array binding signal (z-score) [26]: -1.8; glycan array binding signal (z-score) [27]: -0.147; glycan array binding signal (z-score) [28]: 0.337; glycan array binding signal (z-score) [29]: -0.853
